According to the supplement of paper PMC10032668:
The other results are listed elsewhere or left out. The list holds hits alone, and they repeat only in part.

Chains of the proteins cited; added tags and fusions are not shown.
ATP6V1F, Q16864, UniProt Q16864, whole entry: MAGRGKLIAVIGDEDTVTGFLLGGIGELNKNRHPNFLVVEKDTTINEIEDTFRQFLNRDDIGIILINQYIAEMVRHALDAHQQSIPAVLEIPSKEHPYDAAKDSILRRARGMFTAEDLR
DMD, P11532, UniProt P11532, whole entry: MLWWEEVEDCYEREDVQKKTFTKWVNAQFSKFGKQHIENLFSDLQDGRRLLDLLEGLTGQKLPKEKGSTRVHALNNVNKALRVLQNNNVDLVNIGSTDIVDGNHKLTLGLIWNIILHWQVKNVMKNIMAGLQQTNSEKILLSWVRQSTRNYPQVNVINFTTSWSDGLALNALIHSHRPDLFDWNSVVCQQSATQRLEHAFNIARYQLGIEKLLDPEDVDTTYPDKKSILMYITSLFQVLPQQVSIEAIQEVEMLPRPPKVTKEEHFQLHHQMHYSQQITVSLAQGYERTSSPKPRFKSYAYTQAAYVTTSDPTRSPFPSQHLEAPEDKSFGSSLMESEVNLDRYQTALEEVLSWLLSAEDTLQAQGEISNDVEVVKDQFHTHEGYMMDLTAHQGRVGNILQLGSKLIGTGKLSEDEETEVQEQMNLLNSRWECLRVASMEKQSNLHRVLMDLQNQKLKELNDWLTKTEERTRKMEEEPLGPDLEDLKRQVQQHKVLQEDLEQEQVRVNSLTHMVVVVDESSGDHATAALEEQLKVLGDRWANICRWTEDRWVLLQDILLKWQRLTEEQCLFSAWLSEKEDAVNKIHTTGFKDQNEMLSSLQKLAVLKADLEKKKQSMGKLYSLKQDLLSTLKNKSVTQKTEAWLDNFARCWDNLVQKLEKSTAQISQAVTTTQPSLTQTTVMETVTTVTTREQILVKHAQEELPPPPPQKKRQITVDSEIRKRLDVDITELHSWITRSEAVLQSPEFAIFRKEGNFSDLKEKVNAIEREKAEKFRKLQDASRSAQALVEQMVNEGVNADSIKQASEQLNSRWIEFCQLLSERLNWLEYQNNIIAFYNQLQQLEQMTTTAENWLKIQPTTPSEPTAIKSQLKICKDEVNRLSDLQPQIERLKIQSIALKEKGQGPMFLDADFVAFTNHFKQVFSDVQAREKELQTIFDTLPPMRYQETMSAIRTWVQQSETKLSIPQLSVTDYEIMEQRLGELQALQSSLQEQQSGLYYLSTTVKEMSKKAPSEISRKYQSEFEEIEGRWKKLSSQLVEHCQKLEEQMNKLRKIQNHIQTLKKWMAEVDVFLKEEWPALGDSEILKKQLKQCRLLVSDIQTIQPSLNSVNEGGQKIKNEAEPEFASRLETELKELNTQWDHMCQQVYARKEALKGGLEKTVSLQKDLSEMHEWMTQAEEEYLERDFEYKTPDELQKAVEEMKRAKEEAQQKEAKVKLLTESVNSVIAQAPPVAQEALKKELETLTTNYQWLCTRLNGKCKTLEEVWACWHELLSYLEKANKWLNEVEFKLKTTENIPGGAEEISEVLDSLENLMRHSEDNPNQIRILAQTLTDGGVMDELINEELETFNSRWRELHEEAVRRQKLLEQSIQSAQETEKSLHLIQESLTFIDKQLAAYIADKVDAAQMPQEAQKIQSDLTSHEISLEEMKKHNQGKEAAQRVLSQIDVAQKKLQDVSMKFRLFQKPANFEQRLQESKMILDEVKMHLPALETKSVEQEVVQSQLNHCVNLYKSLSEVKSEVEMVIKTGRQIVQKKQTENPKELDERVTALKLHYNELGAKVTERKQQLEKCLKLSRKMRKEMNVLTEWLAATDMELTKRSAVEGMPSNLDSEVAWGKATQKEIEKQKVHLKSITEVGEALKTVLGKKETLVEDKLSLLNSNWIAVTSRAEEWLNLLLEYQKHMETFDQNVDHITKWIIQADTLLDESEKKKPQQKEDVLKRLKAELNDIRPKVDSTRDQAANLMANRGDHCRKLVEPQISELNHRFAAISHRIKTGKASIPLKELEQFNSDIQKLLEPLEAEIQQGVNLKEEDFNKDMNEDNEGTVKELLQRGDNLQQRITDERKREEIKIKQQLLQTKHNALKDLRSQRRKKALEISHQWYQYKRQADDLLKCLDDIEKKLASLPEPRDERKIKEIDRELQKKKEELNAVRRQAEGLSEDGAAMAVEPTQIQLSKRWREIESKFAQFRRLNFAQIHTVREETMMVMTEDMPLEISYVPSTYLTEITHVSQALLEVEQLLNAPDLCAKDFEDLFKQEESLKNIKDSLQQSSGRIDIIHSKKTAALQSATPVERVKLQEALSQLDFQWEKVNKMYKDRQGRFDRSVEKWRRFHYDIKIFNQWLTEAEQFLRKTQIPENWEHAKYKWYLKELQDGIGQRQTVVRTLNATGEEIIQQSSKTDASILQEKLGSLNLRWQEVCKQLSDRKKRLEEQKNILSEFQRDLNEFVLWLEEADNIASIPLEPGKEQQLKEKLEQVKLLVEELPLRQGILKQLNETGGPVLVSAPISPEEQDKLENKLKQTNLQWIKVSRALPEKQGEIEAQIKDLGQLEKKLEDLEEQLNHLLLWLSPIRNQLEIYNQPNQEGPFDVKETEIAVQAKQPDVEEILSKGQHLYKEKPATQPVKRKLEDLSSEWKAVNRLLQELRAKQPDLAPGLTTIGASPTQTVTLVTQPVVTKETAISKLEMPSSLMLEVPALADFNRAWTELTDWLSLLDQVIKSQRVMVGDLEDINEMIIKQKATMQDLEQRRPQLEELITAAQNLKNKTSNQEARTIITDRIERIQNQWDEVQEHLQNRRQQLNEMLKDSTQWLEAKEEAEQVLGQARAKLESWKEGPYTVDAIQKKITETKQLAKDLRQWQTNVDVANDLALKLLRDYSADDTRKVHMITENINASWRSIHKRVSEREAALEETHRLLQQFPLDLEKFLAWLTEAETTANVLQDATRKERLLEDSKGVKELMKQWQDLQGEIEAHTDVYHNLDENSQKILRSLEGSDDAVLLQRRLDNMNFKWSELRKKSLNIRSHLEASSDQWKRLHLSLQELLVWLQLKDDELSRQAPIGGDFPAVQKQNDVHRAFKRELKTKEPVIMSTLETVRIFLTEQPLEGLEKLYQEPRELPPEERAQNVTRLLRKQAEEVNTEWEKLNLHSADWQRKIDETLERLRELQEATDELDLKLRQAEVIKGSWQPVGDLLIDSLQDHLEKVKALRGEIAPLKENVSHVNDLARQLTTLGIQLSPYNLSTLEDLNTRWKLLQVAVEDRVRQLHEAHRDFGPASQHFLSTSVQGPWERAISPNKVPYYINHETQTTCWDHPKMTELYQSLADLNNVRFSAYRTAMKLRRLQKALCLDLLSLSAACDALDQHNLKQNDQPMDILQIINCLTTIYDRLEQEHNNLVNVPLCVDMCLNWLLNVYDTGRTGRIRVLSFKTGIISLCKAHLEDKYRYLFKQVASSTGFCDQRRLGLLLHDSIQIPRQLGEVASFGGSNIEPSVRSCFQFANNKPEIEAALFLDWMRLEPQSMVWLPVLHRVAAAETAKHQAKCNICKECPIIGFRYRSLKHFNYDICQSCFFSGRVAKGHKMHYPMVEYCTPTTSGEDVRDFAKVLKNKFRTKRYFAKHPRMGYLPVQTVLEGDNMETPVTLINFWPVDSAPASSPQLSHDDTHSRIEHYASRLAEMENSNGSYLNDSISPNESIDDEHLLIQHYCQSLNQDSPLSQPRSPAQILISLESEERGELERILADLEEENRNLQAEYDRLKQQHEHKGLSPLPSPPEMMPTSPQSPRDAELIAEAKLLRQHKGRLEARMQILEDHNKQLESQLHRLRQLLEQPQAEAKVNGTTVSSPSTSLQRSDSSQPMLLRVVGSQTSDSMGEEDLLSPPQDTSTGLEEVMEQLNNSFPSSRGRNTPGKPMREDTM
LARP4, Q71RC2, UniProt Q71RC2, whole entry: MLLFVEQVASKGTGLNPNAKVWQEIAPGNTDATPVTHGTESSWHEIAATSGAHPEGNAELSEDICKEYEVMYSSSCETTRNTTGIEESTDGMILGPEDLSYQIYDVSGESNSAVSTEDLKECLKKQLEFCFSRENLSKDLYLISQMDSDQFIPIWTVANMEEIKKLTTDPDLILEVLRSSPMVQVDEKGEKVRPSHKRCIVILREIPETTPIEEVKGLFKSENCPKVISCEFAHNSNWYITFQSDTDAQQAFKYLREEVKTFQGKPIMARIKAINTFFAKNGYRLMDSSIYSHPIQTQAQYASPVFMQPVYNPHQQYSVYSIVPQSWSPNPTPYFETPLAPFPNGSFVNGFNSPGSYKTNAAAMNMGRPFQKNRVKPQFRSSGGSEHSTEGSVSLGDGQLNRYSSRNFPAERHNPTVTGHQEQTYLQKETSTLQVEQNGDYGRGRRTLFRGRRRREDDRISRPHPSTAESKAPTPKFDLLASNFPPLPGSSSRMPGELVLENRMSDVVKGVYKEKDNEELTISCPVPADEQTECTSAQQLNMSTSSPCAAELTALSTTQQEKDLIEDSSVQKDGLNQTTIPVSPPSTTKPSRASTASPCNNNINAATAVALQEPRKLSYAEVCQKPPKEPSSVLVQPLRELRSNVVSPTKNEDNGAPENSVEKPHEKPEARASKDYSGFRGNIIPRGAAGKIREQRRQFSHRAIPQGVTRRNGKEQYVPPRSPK
STAT3, P40763, UniProt P40763, whole entry: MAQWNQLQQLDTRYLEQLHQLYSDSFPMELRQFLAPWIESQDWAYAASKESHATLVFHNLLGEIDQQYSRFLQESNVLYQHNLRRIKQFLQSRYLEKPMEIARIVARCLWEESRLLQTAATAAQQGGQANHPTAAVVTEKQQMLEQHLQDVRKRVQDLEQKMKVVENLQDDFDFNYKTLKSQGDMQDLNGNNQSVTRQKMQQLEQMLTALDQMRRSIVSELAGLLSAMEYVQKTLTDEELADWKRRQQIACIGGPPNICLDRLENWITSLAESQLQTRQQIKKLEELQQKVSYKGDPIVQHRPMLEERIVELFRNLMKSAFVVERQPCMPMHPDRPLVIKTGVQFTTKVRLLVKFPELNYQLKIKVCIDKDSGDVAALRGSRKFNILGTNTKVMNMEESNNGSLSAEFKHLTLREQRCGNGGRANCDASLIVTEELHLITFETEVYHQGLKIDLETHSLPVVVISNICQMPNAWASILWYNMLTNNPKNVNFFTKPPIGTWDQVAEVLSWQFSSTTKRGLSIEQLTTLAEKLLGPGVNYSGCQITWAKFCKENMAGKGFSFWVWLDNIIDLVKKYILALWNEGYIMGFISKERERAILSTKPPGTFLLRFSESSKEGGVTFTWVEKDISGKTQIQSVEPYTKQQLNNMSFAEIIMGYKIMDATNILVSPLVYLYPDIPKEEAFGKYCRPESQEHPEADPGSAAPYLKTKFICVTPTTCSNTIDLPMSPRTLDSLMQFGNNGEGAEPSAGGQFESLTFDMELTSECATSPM
TUBG1, P23258, UniProt P23258, whole entry: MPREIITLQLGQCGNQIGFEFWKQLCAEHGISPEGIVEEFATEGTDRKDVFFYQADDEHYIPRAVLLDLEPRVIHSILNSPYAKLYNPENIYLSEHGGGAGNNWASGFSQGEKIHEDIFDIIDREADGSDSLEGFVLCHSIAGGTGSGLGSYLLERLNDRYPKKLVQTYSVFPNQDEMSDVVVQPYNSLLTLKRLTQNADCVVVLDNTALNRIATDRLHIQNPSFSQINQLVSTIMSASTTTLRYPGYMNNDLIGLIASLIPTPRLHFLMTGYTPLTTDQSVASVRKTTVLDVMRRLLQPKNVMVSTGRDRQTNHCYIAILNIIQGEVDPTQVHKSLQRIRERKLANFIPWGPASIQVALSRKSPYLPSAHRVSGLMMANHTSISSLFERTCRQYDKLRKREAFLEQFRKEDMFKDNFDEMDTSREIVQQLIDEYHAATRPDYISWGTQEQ

How the values were obtained:
Test in all cases: PRISMA enrichment of interactor (LFQ) in peptide spot vs all other peptide spots (log2 fold change); higher = stronger / more specific binding of the interactor to the peptide
[1] = target: AK4, P27144
Method: (§1)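 PRISMA: 221 full-length sORF-encoded peptides (3-15 aa), plus SOS1/GLUT1 control peptides, were spot-synthesized on cellulose membranes in triplicate. Membranes were incubated with HEK293T lysate, and bound proteins were identified by LC-MS/MS with LFQ. Enrichment is the log2 fold change versus all other peptide spots; only significant interactors are listed (cutoff c=6, x0=2.8).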

[2] = target: ATP6V1F, Q16864
Method: as §1

[3] = target: BMP15, O95972
Method: as §1

[4] = target: CTNND1, O60716
Method: as §1

[5] = target: DHRS7B, Q6IAN0
Method: as §1

[6] = target: DIMT1, Q9UNQ2
Method: as §1

[7] = target: DMD, P11532
Method: as §1

[8] = target: DUSP3, P51452
Method: as §1

[9] = target: LARP4, Q71RC2
Method: as §1

[10] = target: LIG3, P49916
Method: as §1

[11] = target: MCU, Q8NE86
Method: as §1

[12] = target: METTL7A, Q9H8H3
Method: as §1

[13] = target: MICOS13, Q5XKP0
Method: as §1

[14] = target: MRPL45, Q9BRJ2
Method: as §1

[15] = target: MRPS35, P82673
Method: as §1

[16] = target: NAMPT, P43490
Method: as §1

[17] = target: NECAP2, Q9NVZ3
Method: as §1

[18] = target: NUBP2, Q9Y5Y2
Method: as §1

[19] = target: NUP153, P49790
Method: as §1

[20] = target: NXF1, Q9UBU9
Method: as §1

[21] = target: ORC4, O43929
Method: as §1

[22] = target: RCN2, Q14257
Method: as §1

[23] = target: RELCH, Q9P260
Method: as §1

[24] = target: SCPEP1, Q9HB40
Method: as §1

[25] = target: STAT3, P40763
Method: as §1

[26] = target: TFB1M, Q8WVM0
Method: as §1

[27] = target: TUBG1, P23258
Method: as §1

[28] = target: UFL1, O94874
Method: as §1

[29] = target: YLPM1, P49750
Method: as §1

## MVISTLLDFKLRS [SMAD1]
[1]
  PRISMA enrichment of interactor (log2): 5.84
[2]
  PRISMA enrichment of interactor (log2): 4.58
[3]
  PRISMA enrichment of interactor (log2): 8.57
[4]
  PRISMA enrichment of interactor (log2): 6.07
[5]
  PRISMA enrichment of interactor (log2): 4.4
[6]
  PRISMA enrichment of interactor (log2): 4.87
[7]
  PRISMA enrichment of interactor (log2): 8.24
[8]
  PRISMA enrichment of interactor (log2): 5.51
[9]
  PRISMA enrichment of interactor (log2): 7.58
[10]
  PRISMA enrichment of interactor (log2): 4.16
[11]
  PRISMA enrichment of interactor (log2): 6.43
[12]
  PRISMA enrichment of interactor (log2): 9.47
[13]
  PRISMA enrichment of interactor (log2): 4.21
[14]
  PRISMA enrichment of interactor (log2): 11.1
[15]
  PRISMA enrichment of interactor (log2): 5.61
[16]
  PRISMA enrichment of interactor (log2): 6.52
[17]
  PRISMA enrichment of interactor (log2): 3.99
[18]
  PRISMA enrichment of interactor (log2): 5.14
[19]
  PRISMA enrichment of interactor (log2): 5.19
[20]
  PRISMA enrichment of interactor (log2): 5.8
[21]
  PRISMA enrichment of interactor (log2): 4.56
[22]
  PRISMA enrichment of interactor (log2): 5.74
[23]
  PRISMA enrichment of interactor (log2): 5.86
[24]
  PRISMA enrichment of interactor (log2): 6.04
[25]
  PRISMA enrichment of interactor (log2): 6.33
[26]
  PRISMA enrichment of interactor (log2): 4.63
[27]
  PRISMA enrichment of interactor (log2): 5.09
[28]
  PRISMA enrichment of interactor (log2): 4.53
[29]
  PRISMA enrichment of interactor (log2): 4.3
